At least one compound was matched to its structure with a doubt left.
Columns and labels:
[1] = system: posterior lateral line primordium; assay: Primordium migration with claudin-B primordium marker in zebra fish embryos; format: in vivo, zebra fish (Danio rerio); conditions: Example 2, incubation 22 hpf until 36 hpf
Method: (§1) Zebra fish (Danio rerio) are used, kept in a 14/10-hour light/darkness cycle. Embryos are recovered after natural fish mating and they grow in Petri plates at 28° C. in E3 medium (5 mM NaCl, 0.17 mM KCl, 0.33 mM CaCl2, 0.33 mM MgSO4, and 0.1% Methylene Blue) until the reach the development stadium suitable for the test, which is determined according to Kimmel et al., (1995). The larval stadiums are designated in post fertilization hours (hpf) or post fertilization days (dpf).
(§2) In this way, we have evaluated our hypothesis of the Fenritinide effect on dendritic cells, taking our invention as the test model. Zebra fish embryos were incubated in accordance with the basic conditions described in Example 1, but in the presence of Fenritinide since the time when the posterior lateral line primordium starts to migrate (22 hours post fecundation (hpf) stadium), until the LLP system is mature (36 hpf stadium) and is easily visualized with the DiAsp tinction. […] We checked whether the absence of mature neuromasts is caused by migration blocking by means of in situ hybridization using the claudin-B (anti-claudinB antibody, detected with immunofluorescence) primordium marker.

neuromasts = assay: DiAsp tinction of mature neuromasts of the posterior lateral line in zebra fish embryos; format: in vivo, zebra fish (Danio rerio); conditions: Example 2, incubation 22 hpf until 36 hpf
Method: as §1
as §2, with “marker. […]” for “marker.”

**Q.** How did the “primordium migration (claudin-B primordium marker)” value [1] turn out when `CC1=C(/C=C/C(C)=C/C=C/C(C)=C/C(=O)O)C(C)(C)CCC1` [retinoic acid] was run?
**A.** The value was “no effect at all”.

**Q.** And the “DiAsp tinction of mature neuromasts” value (neuromasts)?
**A.** The value was “presented mature neuromasts”.
